Measured values as given in PubChem BioAssay AID1794845 (National Center for Advancing Translational Sciences (NCATS), 2023).
In all, about 6,900 compounds went through this assay and fewer than 10 were called active. Calls follow the shape of the dose curve; as a rule, active = well fitted curve in the direction sought with a large enough effect; inconclusive = small, poorly fitted or top-dose-only effect, or another doubt; inactive = no such curve, though single readings can be large or run the other way. The list shows a part of the results.

Sequences of proteins named here, by UniProt entry; tags and fusion partners are left off. A change or cut given only in a name is not applied to a line headed by its entry.
UniProt C7C422: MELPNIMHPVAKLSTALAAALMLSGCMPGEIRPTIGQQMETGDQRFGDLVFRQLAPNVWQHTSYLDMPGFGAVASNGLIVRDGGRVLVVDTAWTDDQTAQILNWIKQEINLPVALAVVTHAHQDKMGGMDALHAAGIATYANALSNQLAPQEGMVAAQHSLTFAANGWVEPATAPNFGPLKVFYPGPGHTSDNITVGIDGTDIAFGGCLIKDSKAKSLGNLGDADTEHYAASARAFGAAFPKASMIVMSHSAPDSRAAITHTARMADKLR

biological target: Metallo-beta-lactamase type 2 (Klebsiella pneumoniae) (UniProt C7C422); test: qHTS to identify inhibitors of the New Delhi Metallo-beta-lactamase (NDM): primary screen against the NCATS Gemini Collection; conditions: NDM-1 enzyme, meropenem hydrolysis, absorbance 300 nm; at 38.4 µM (top of the series) unless noted; also: % of control where 0% means no effect
Outline: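 Meropenem hydrolysis (50 uM final) by 2 nM NDM-1 read as 300 nm absorbance after 30 min, following >30 min compound–enzyme preincubation in HEPES pH 7.0 with 1 uM ZnSO4 and 0.01% Tween20.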

| SMILES | activity % (negative = inhibition) |
| --- | --- |
| O=C(Cc1ccsc1)N1CCC2(CC1)N=C(c1cccc(Br)c1)NO2 | inactive: 8.23% |
| CCCc1ccc(CN2CCC(c3nnc(Cn4ccnc4)n3C3CC3)CC2)o1 | inactive: 0.81% |
| COc1ccc(CNC(=O)CCC2CCCN(C(=O)CCN3CCCCO3)C2)c(OC)c1 (stereo unspecified) | inactive: 7.37% |
| COCCN1C(=O)N(C)C(=O)C12CCN(Cc1cc(F)ccc1F)C2 (stereo unspecified) | inactive: 8.1% |
| O=C(O)[C@H]1C[C@@H](C(=O)NCc2cccnc2)CN(Cc2ccccn2)C1 | inactive: 43.1% |
| O=C(Cc1cccc(Cl)c1)N1CCC(C(=O)N2CCC(c3ccccc3)CC2)CC1 | inactive: 6.18% |
| COCc1noc([C@@H]2CC(F)(F)CN2C(=O)c2cnc(C)cn2)n1 | inactive: -1.71% |
| COc1ccc(-c2nn(-c3ccccc3C)cc2CN2CCCN(C)CC2)cc1F | inactive: -1.44% |
| CNC(=O)[C@@H](C1CC1)N1CCC[C@H]1C(=O)N1CCOCC1 | inactive: -0.619% [at 57.5 µM] |
| CNC(=O)C(C)(C)N1CCC[C@H]1C(=O)NCc1ccccc1 | inactive: 15.7% [at 57.5 µM] |
| CC1=C[C@@H](CNC(=O)c2cnccn2)[C@H](C(C)C)C[C@H]1CC(=O)O | inactive: 7.3% [at 57.5 µM] |
| C[C@@H](NC(=O)[C@@H]1C[C@@H](NS(=O)(=O)c2cccs2)CCN1C(=O)c1ccco1)C(N)=O | inactive: 19% |
| Cc1nn2c(N3CCC(O)C3)cc(-c3ccccc3)nc2c1C (stereo unspecified) | inactive: -5.78% |
| O=C(c1ccc(C(F)(F)F)cc1)N1CCC2(CC1)COc1ccccc1NC2=O | inactive: 1.41% |
| CSCC(=O)N[C@@H]1CN(Cc2cccnc2)C[C@H]1CN(C)C | inactive: -2.17% |
| c1ccc(-c2cc(CC3(NCC4CC4)COC3)no2)nc1 | inactive: 26.6% [at 77.1 µM] |
| Cc1nc(CC(=O)NC(C)c2cnn(-c3ccccc3)c2C)cs1 (stereo unspecified) | inactive: 13.3% |
| COCc1nc(C2CCN(C(=O)NCC(C)C)C2)no1 (stereo unspecified) | inactive: 14.6% |
| CCOc1ccccc1NC(=O)C1CCN(c2cnc3nccnc3c2)CC1 | inactive: 35.2% |
| CCn1ccnc1CN(C)c1cc(C2CC(N)C2)nc(COC)n1 (stereo unspecified) | inactive: 0.701% |
| COc1cccc(C(=O)N2CCN(c3ccnc4ccnn34)CC2)c1 | inactive: 19% [at 57.5 µM] |
| COCc1cc(NCCCNc2cccnc2)ncn1 | inactive: 14.6% |

Shown with bars between the fields: part of the list above.
SMILES | activity % (negative = inhibition)
COCCN1C(=O)N(C)C(=O)C12CCN(Cc1cc(F)ccc1F)C2 (stereo unspecified) | inactive: 8.1%
O=C(O)[C@H]1C[C@@H](C(=O)NCc2cccnc2)CN(Cc2ccccn2)C1 | inactive: 43.1%
O=C(Cc1cccc(Cl)c1)N1CCC(C(=O)N2CCC(c3ccccc3)CC2)CC1 | inactive: 6.18%
COCc1noc([C@@H]2CC(F)(F)CN2C(=O)c2cnc(C)cn2)n1 | inactive: -1.71%

Carrying on:

| SMILES | activity % (negative = inhibition) |
| --- | --- |
| O=[S+]([O-])(c1ccncc1)c1nnn2c1nc(NCc1ccncc1)c1ccccc12 | inactive: 6.76% |
| O=C(NCc1cccnc1)c1nc(-c2ccc(Cl)cc2)c2ccccn12 | inactive: 54.9% |
| CC(=O)N1CC2(CCCCN2CC2CC2)Cc2ccccc21 (stereo unspecified) | inactive: -5.57% |
| Cc1nnc2n1CCC(N(C)C(=O)CCc1ccccc1)CC2 (stereo unspecified) | inactive: 7.55% |
| COc1cc2c(cc1NC(C)=O)C(c1ccc(Oc3ccccc3)nc1)CC(=O)N2 (stereo unspecified) | inactive: -0.151% |
| CC1(COc2cccnc2)COc2ccc(C(=O)NCc3cccs3)cc2N1 (stereo unspecified) | inactive: 12% [at 57.5 µM] |
| Cc1cn2nnc(C(=O)N3CCC(C(=O)Nc4cccc(F)c4)CC3)c2c(=O)[nH]1 | inactive: -2.5% |
| CCc1nnc([C@@H]2CC(F)(F)CN2C(=O)CCn2cccn2)o1 | inactive: 0.634% |
| Cc1ccccc1OC1(C(=O)O)CCN(c2ncccc2C(N)=O)CC1 | inactive: 23.5% |
| COc1ccc(CN2CCc3oc(C)c(C(=O)NC(C)Cn4ccc(C)n4)c3C2)cc1 (stereo unspecified) | inactive: 3.8% |
| Oc1ccccc1-c1cc(C2=CCOCC2)c2cncn2c1 | inactive: 21.6% [at 77.1 µM] |
| O=C(CNC(=O)c1ccccc1)NCc1nnc2ccc(-c3ccccc3)nn12 | inactive: -0.0817% |
| O=S(=O)(NCCc1noc(-c2ccccc2)n1)c1ccc2c(c1)OCCO2 | inactive: 1.19% |
| Cc1ccc(-c2nccc(N3CCC(O)C3)n2)c(C)c1 (stereo unspecified) | inactive: 8.92% |
| O=C(COc1ccc(-c2nnc3n2CCCC3)cc1)N1CCN(c2ccc(F)cc2)CC1 | inactive: -6.71% |
| Cc1nn(Cc2ccccc2)c(C)c1[C@@H]1C=C[C@@H](NC(=O)c2cccs2)C1 | inactive: 2.42% [at 57.5 µM] |
| Cn1c(CN2CCC(O)CC2)nnc1C1CCCN(Cc2ccccn2)C1 (stereo unspecified) | inactive: 136% |
| CCn1cc(S(=O)(=O)N2CCC(Cc3nncn3C)C2)cn1 (stereo unspecified) | inactive: -0.892% |
| COCCN1CC(CO)C2(CCN(Cc3cccc(OC)n3)CC2)C1 (stereo unspecified) | inactive: -0.517% |
| N#CC1CCN(C(=O)C2CCN(C(=O)c3ccc(-c4cncnc4)cc3)CC2)CC1 | inactive: -3.71% |
| COc1ccc2nc([C@H]3CCN(Cc4cccnc4)C3)[nH]c2c1 | inactive: 27.5% [at 57.5 µM] |
| CS(=O)(=O)c1ccc(CN2C[C@H](O)C[C@H]2c2nc(C3CC3)no2)cc1 | inactive: -0.414% [at 57.5 µM] |

| SMILES | activity % (negative = inhibition) |
| --- | --- |
| CCCS(=O)(=O)N1CCC(c2noc(-c3cccnc3)n2)C1 (stereo unspecified) | inactive: 4.2% |
| CNC(=O)[C@@H]1CN(C(=O)c2ccncc2)C[C@H]1CO | inactive: -3.3% |
| Cc1nc(C)n(CCNC(=O)[C@H]2CNC[C@@H](C(=O)N3CCOCC3)C2)n1 | inactive: -3.23% |
| O=C(NCc1nnc2n1C(C(=O)NCc1ccc(F)cc1)CC2)Nc1cccnc1 (stereo unspecified) | inactive: -2.93% |
| C[C@H]1[C@@H]2[C@@H](O)C([C@H](C)C(=O)N3CCC(Cc4ccccc4)CC3)CC[C@@]2(C)CC[C@@H]1NC(=O)c1cnccn1 (stereo partly specified) | inactive: -3.18% |
| CC1CCCN(c2ncnc3c2CN(c2ccc(Cl)cc2)C(=O)CN3C)C1 (stereo unspecified) | inactive: 6.21% |
| CS(=O)(=O)c1ccc(S(=O)(=O)N2CCC3(CCCNC3)C2)cc1 (stereo unspecified) | inactive: -1.25% |
| Cc1ccc(-n2nc(C)c([C@H]3C=C[C@@H](OC(=O)N[C@H](C)c4ccccc4)C3)c2C)cc1Cl | inactive: 2.37% |
| CCCCSCc1cc(C(=O)N2CC(C)(C)C(C)(O)C2)oc1C (stereo unspecified) | inactive: -1.04% |
| COc1ccccc1-n1cc(C(=O)N2CCCC2c2nonc2C)cn1 (stereo unspecified) | inactive: -0.641% |
| Cc1ccc(S(=O)(=O)N2CCC(Oc3ncccc3C(=O)N(C)C)C2)cc1C (stereo unspecified) | inactive: -0.853% |
| Cc1cccc(C(=O)N2CCCCCNC(=O)CC2c2ccccc2)c1 (stereo unspecified) | inactive: 21.2% |
| CCOc1ccccc1NC(=O)N1CCCCCCNC(=O)CC1c1ccccc1 (stereo unspecified) | inactive: 12.8% |
| O=C(NC1CCOCC1)c1cccc(S(=O)(=O)N2CCC[C@H]2CO)c1 | inactive: 6.92% |
| CSCCC(=O)N[C@H]1CN(c2cc(C3CC3)ncn2)C[C@@H]1C1CC1 | inactive: 2.74% |
| CN(C)C[C@@H]1CN(C2CCOCC2)C[C@H]1NC(=O)c1cc2ccccc2[nH]1 | inactive: 43.5% |
| O=C(CN1C(=O)CNC1=O)N[C@H](c1ccc2c(c1)CCO2)C1CC(O)C1 (stereo partly specified) | inactive: 0.97% |
| CO[C@@H]1COCC[C@H]1NC(=O)c1cn(CCN2CCNCC2)nn1 | inactive: 28.6% |
| COC1CCCN(C(=O)c2cnc(Cc3c(Cl)cccc3Cl)[nH]c2=O)C1 (stereo unspecified) | inactive: 3.91% |
| O=C([C@@H]1C[C@H](F)CN1S(=O)(=O)Cc1ccccc1)N1CCOCC1 | inactive: 4.38% |
| COCCCNc1nc(-c2cccnc2)nc2c1CNC2 | inactive: 39.4% |
| COc1ccc(-c2cnc([C@@H]3COCCN3Cc3nc4ccccc4n3C)[nH]2)cc1 | inactive: 92.2% [at 57.5 µM] |

| SMILES | activity % (negative = inhibition) |
| --- | --- |
| CC(=O)N1CCc2nn(CC(=O)Nc3ccccc3C(C)C)c(=O)cc2C1 | inactive: 0.0883% |
| O=C(c1cc(CN2CCC(Cc3ccccc3)CC2)on1)N1CCN2CCCC2C1 (stereo unspecified) | inactive: 26.7% |
| CCN(Cc1nccn1C)C(=O)c1cc(-c2cnc(C)nc2)nc2ccc(F)cc12 | inactive: 1.51% |
| CCC(C(=O)NCc1c(C)ncc2c1CCNC2)n1cccn1 (stereo unspecified) | inactive: 3.89% |
| O=C(C1CCOCC1)N1CCOC[C@H](Oc2ccccc2)C1 | inactive: -5.25% [at 57.5 µM] |
| O=C(O)c1ccnc(-c2ccnc(NCCCN3CCCC3=O)n2)c1 | inactive: 15.2% |
| Cc1ccc(Nc2ccnc(N3CCC(C(=O)NCc4ccc(F)cc4)CC3)n2)cc1 | inactive: 8.62% |
| OCC1(CN2CCCC2)CCN(Cc2cnn(-c3ccccc3)c2)CC1 | inactive: 1.86% |
| COc1cccc(CNC(=O)C2CCCCc3nnc(-c4ccccc4)n32)c1 (stereo unspecified) | inactive: -4.37% |
| Cc1n[nH]c(C)c1CNC(=O)C1CCCCC(=O)N1 (stereo unspecified) | inactive: -0.828% |
| CN(Cc1ccccc1)C1(C(=O)NC2CCC(O)CC2)Cc2ccccc2C1 (stereo unspecified) | inactive: -8.52% |
| CN1CCN(c2nc3c(c(=O)[nH]2)CCN(Cc2cccnc2)CC3)CC1 | inactive: -1.45% |
| O=C1CCC2(CCCO2)CCN1Cc1ccc(C(F)(F)F)c(F)c1 (stereo unspecified) | inactive: 14.6% |
| C=CC[C@@H]1CC=C[C@@H](C)N1C(=O)c1cc(OC)ccc1OC1CCN(C(=O)C2CC2)CC1 | inactive: -13.8% |
| COc1ccc(S(=O)(=O)N2C[C@@H]3C[C@H](C2)c2c(NC(=O)c4ccccc4)ccc(=O)n2C3)cc1 | inactive: -2.64% |
| CC1=C[C@@H](CNC(=O)COc2ccccc2)[C@H](C(C)C)C[C@H]1CC(=O)NCCN(C)C | inactive: -1.64% [at 57.5 µM] |
| CC1(C(=O)Nc2ccccc2)CN(Cc2ccccc2)Cc2ccc(N3CCOCC3)nc21 (stereo unspecified) | inactive: 0.823% |
| CCOC(=O)c1cnc(N2CC3CCC(C2)N3CC(F)(F)F)s1 | inactive: 23.8% |
| COCCn1nc2n(c1=O)CCN(Cc1cccc(OC)n1)CC2 | inactive: -4.84% |
| CCn1cc(-c2ccncc2)cc1C(=O)NCc1ccc(OC(C)C)cc1 | inactive: 3.84% |
